The target in one experiment is T1, GST-BRCA1 (697-1276) (UniProt P38398).
T1 sequence: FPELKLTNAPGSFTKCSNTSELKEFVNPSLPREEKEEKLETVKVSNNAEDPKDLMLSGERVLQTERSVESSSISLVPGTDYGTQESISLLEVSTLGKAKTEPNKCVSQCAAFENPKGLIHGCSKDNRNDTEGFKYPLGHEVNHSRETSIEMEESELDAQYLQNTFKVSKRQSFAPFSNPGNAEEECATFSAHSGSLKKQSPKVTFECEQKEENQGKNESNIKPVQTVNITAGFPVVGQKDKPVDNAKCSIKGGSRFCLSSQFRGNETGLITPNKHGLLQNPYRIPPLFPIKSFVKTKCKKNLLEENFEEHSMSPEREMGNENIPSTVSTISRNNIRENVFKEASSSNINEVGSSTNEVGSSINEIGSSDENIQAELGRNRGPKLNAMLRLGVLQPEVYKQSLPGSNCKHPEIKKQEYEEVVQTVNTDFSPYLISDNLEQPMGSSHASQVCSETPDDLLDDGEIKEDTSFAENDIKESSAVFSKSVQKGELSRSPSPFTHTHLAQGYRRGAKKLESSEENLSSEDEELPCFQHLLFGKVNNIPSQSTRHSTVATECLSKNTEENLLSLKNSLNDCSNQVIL
Kind of experiment: pull-down; 1 ug GST fusion on beads rotated overnight at 4°C with whole cell extract (1 mg) of Flag-Tat101-transfected TZM-bl cells in 500 ul lysis buffer; GST-BRCA1 beads washed with TNE300, TNE150, TNE50 + 0.1% NP-40; GST-Tat beads washed with TNE150 once and TNE50 twice + 0.1% NP-40; western blot anti-Flag and anti-BRCA1; only the target purified. A general note: In western blotting, separated proteins are transferred to a membrane and probed.

The target of a further experiment is T2, GST-BRCA1 (1501-1861) (UniProt P38398).
T2 sequence: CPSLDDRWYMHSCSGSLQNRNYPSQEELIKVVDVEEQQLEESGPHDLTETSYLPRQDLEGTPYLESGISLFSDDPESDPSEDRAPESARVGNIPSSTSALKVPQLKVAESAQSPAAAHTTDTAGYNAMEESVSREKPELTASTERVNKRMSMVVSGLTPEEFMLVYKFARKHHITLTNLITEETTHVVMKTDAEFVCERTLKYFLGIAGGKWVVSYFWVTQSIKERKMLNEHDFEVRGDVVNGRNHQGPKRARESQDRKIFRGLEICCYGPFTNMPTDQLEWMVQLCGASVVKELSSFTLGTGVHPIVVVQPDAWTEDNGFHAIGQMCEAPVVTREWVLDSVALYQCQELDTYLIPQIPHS
The experiment is described as above.

Results are given in words; binding and its absence hold for the method and conditions named. Binding seen in cells or lysates may run through a third protein. Sequences can lack the tags named with a protein.

On to Flag-Tat101 (HIV-1), for which the binding entry in the experiment with GST-BRCA1 (697-1276) and in the experiment with GST-BRCA1 (1501-1861) was “no binding” throughout.

The values above are taken from PMC4359766.
